Taken from: PubChem BioAssay AID1053208 (Peter MacCallum Cancer Centre, 2014)
Aim: 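Genes whose silencing cuts survival of bone tumour cells only with doxorubicin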 (primary screen). Cell system: mouse osteosarcoma cells, early-passage culture from an engineered mouse model of fibroblastic bone tumour. Reagent: siRNA pool against mouse genes, 40 nM. Timing: about 120 h (48 h before drug, then 72 h with drug). Conditions: doxorubicin 100 nM for 72 h, roughly 30-40% inhibitory dose. Detection: 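Viability read as ATP luminescence after 72 h of 100 nM doxorubicin or none, duplicate wells averaged, scaled to non-targeting siRNA, then expressed as robust z-scores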. Direction: viability z-score with doxorubicin: higher = more viable cells under doxorubicin; viability z-score without drug: higher = more viable cells with knock-down alone. Rule for the call: 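a pool counts as active when its viability z-score with doxorubicin is -2 or below and its z-score without drug lies between -2 and 2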.
The whole screen tested about 17,000 reagents; shown is a random part of them. In the full data, 788 (4.7%) are marked active. 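Calls rest on z-score classes alone; an extra cut-off of viability at most 70% of control was not applied to them.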 A number with no mark means an inactive call. Not all columns of the deposit are shown. Reagent sequences are not shown.

gene	PubChem SID	combined z-score class	viability z-score with doxorubicin	viability z-score without drug
Klhl13 (GeneID 67455)	SID152265452	no change with or without drug	1.12	1.52
Tmem134 (GeneID 66990)	SID152291212	no change with or without drug	1.91	-0.51
Arf2 (GeneID 11841)	SID152317145	no change with or without drug	-0.67	-1.52
Cdr1os (GeneID 331424)	SID152320125	high cell count without drug only	0	2.02
Smarca5 (GeneID 93762)	SID152338091	no change with or without drug	-0.22	-1.18
Trit1 (GeneID 66966)	SID152328379	no change with or without drug	-0.56	1.35
Bax (GeneID 12028)	SID152261438	no change with or without drug	0.34	0.51
Lpcat3 (GeneID 14792)	SID152282708	low cell count without drug only	-0.9	-2.02
Il17d (GeneID 239114)	SID152296615	no change with or without drug	0	0.17
Sptlc3 (GeneID 228677)	SID152277445	no change with or without drug	-0.34	-0.67
Jam3 (GeneID 83964)	SID152342205	no change with or without drug	-0.67	0.17
Gal (GeneID 14419)	SID152293199	no change with or without drug	1.12	1.18
Or6c208 (GeneID 258724)	SID152289683	no change with or without drug	-0.9	-1.18
Wtip (GeneID 101543)	SID152340510	no change with or without drug	0.34	1.18
Trim50 (GeneID 215061)	SID152289633	no change with or without drug	0	-0.67
Spsb1 (GeneID 74646)	SID152320350	low cell count with doxorubicin only (active)	-3.15	1.85
Aldh16a1 (GeneID 69748)	SID152327897	low cell count with doxorubicin only (active)	-3.6	-1.69
Nasp (GeneID 50927)	SID152324794	no change with or without drug	0.45	0.67
Zbed3 (GeneID 72114)	SID152263675	no change with or without drug	1.57	1.18
Kptn (GeneID 70394)	SID152318003	no change with or without drug	-0.22	-0.51
Tspan18 (GeneID 241556)	SID152286464	no change with or without drug	-1.24	-1.52
Lrrfip1 (GeneID 16978)	SID152336606	low cell count with doxorubicin only (active)	-2.14	-1.52
Slc25a27 (GeneID 74011)	SID152293675	no change with or without drug	0.22	-0.51
Adh5 (GeneID 11532)	SID152333226	no change with or without drug	0.45	1.52
Myh6 (GeneID 17888)	SID152287491	no change with or without drug	1.24	0
2410004B18Rik (GeneID 66421)	SID152284558	high cell count without drug only	1.8	2.19
Kl (GeneID 16591)	SID152272426	no change with or without drug	0.79	0.51
Naa15 (GeneID 74838)	SID152272112	no change with or without drug	1.24	-0.84
Serpina1d (GeneID 20703)	SID152323671	no change with or without drug	-0.56	-0.51
Slc46a2 (GeneID 30936)	SID152289426	no change with or without drug	0.56	-0.17
Rrp8 (GeneID 101867)	SID152262976	no change with or without drug	0.67	0.67
Vasn (GeneID 246154)	SID152337951	no change with or without drug	0.45	1.18
Pkdcc (GeneID 106522)	SID152282430	no change with or without drug	-0.11	-1.52
Slc25a45 (GeneID 107375)	SID152333499	no change with or without drug	0	0.34

In a second layout: results already given.
gene | PubChem SID | combined z-score class | viability z-score with doxorubicin | viability z-score without drug
Serpina1d (GeneID 20703) | SID152323671 | no change with or without drug | -0.56 | -0.51
Slc46a2 (GeneID 30936) | SID152289426 | no change with or without drug | 0.56 | -0.17
